Taken from: PubChem BioAssay AID1259424 (University of Nebraska Medical Center, 2018)

Screen: 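Rank knockdowns across the genome by resemblance to the KSR1 depletion profile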 (primary screen)
Cell system: human HCT116 colon cancer cells
Knock-down reagent: siRNA pool against human genes, 50 nM
Measurement: 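Log2 levels of six mRNAs (branched-DNA multiplex), adjusted by two reference genes and the non-targeting median, then scored against the average KSR1 knockdown pattern as Pearson r and euclidean distance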
Reading the numbers: mean correlation with KSR1 profile: higher = expression change more like KSR1 knockdown; mean distance from KSR1 profile: higher = expression change less like KSR1 knockdown
Shown is one part, drawn at random, of about 14,000 reagents. 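Higher correlation or smaller distance means closer resemblance to KSR1 loss; control wells, including KSR1 knockdowns, recur on many plates.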 Not all columns of the deposit are shown. No sequences are given here. Not given: the time to read-out.

| gene | mean correlation with KSR1 profile | mean distance from KSR1 profile |
| --- | --- | --- |
| SLC7A3 | 0.63 | 1.26 |
| APOC2 | -0.0672 | 2.62 |
| STAT4 | 0.643 | 1.31 |
| THAP12 | -0.155 | 3.69 |
| KIF13A | -0.319 | 2.58 |
| MARK1 | -0.0689 | 2.73 |
| DNASE1 | -0.276 | 2.33 |
| PLAGL1 | 0.617 | 1.23 |
| TMBIM4 | 0.00939 | 3.35 |
| MINDY2 | -0.713 | 3.14 |
| HGH1 | 0.15 | 2.3 |
| PUDP | -0.171 | 1.59 |
| ST6GALNAC4 | 0.298 | 1.48 |
| PNMA1 | 0.515 | 1.58 |
| QKI | -0.0161 | 1.99 |
| HECW1 | -0.153 | 1.77 |
| KCNK10 | -0.252 | 3.09 |
| ABT1 | -0.197 | 2.81 |
| CYP2A7 | 0.218 | 1.72 |
| NPSR1-AS1 | 0.301 | 1.49 |
| SMNDC1 | -0.562 | 2.2 |
| MYB | -0.107 | 2.36 |
| TRIL | -0.378 | 2.13 |
| ARG1 | -0.0638 | 1.09 |
| TRIM37 | -0.122 | 1.16 |
| NDUFB5 | 0.14 | 1.94 |
| CTSC | -0.00312 | 1.66 |
| FAM53C | -0.449 | 2.72 |
| HEMK2 | 0.486 | 1.65 |
| FPR3 | 0.537 | 1.35 |
| REN | 0.503 | 3.53 |
| SEMA3A | -0.742 | 2.1 |
| STYK1 | -0.266 | 2.67 |
| GABRG3 | 0.00446 | 4.02 |
| SLTM | 0.561 | 1.24 |
| IL19 | 0.188 | 3.49 |
| SLC30A1 | 0.13 | 1.67 |
| QTRT2 | 0.608 | 1.61 |
| SLC22A1 | 0.66 | 0.82 |
| DKKL1 | -0.51 | 1.57 |
| AK1 | -0.118 | 2.53 |
| DRP2 | 0.788 | 1.28 |
| CYP4F2 | 0.316 | 2.42 |
| KIRREL3 | -0.155 | 3.23 |
| LRRC31 | 0.636 | 2.72 |
| SLC9A3 | -0.499 | 2.6 |
| ARHGAP31 | -0.623 | 2.85 |
| SF3A2 | -0.203 | 3.79 |
| IMPG2 | 0.0829 | 1.37 |
| SEC13 | 0.322 | 1.41 |

Quoted from the listing (3 entries):
| gene | mean correlation with KSR1 profile | mean distance from KSR1 profile |
| --- | --- | --- |
| KIRREL3 | -0.155 | 3.23 |
| LRRC31 | 0.636 | 2.72 |
| SLC9A3 | -0.499 | 2.6 |
